Substitutions are numbered along the chain they refer to. Results are given in words; binding and its absence hold for the method and conditions named.
Columns and labels:
[1] = target: T1, TolAIII K420P (E. coli) (UniProt P19934); assay: SPR; TolAIII WT, D418P or K420P amine-coupled to CM5; TolB 10 µM in HEPES-EP injected at 10 µl/min for 180 s; blank surface subtracted; both purified
T1 sequence: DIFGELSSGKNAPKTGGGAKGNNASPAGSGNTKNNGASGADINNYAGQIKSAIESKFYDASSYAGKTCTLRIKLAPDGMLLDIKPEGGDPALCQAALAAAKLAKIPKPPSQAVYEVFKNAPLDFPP

Sequences of proteins named here, by UniProt entry; tags and fusion partners are left off. Residues count along the entry.
UniProt P0A855, residues 22-430: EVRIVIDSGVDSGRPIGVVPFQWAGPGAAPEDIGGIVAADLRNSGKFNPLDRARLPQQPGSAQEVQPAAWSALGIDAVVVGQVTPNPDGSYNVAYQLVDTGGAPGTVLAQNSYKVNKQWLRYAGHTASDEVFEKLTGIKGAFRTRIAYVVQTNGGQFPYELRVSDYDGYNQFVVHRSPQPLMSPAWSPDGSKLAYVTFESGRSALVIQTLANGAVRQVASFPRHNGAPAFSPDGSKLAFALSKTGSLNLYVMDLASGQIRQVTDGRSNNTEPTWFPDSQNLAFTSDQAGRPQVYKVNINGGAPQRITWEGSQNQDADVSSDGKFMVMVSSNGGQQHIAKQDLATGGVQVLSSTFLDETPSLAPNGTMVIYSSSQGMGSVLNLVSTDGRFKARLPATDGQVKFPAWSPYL

[2] = target: T2, TolAIII D418P (E. coli) (UniProt P19934); assay: as above
T2 sequence: T1 sequence with D123P, P125K

With “TolB, wild type (from UniProt P0A855 22-430)” the binding [1] was “no binding (tested: 10 µM)” and the binding [2] was “no binding (tested: 10 µM)”.
